PubChem BioAssay AID504774 | Drosophila RNAi Screening Center | 2011

Assay: 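Genes required for cells to withstand methyl methanesulphonate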 (primary screen)
Cell system: Drosophila Kc167 cells
Reagents: long dsRNA against Drosophila genes, about 0.25 µg dsRNA per well
Duration: about 6 days: 3 days knock-down, then 3 days with or without MMS
Treatment: methyl methanesulphonate 0.004% (w/v) for 3 days after knock-down
Detection: 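Viability in wells given MMS, read as ATP luminescence, normalised by quantiles plate by plate and averaged across replicates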
Reading the numbers: mean viability with MMS: higher = more surviving cells after MMS
In all, the deposit lists about 23,000 reagents; this is a random part of those with a known target gene and a result. 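Values are quantile-normalised luminescence on an arbitrary scale; higher means more cells surviving MMS.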 Further read-outs or replicates are left out here. No sequences are given here.

mean viability with MMS, by target gene and reagent
Mip (Myoinhibiting peptide precursor): DRSC10639 3.46e6
Cpr30B (Cuticular protein 30B): DRSC02728 3.58e6
PDCD-5 (Programmed Cell Death 5): DRSC09955 3.46e6
mTTF (mitochondrial transcription termination factor): DRSC01909 3.54e6
raskol: DRSC19202 3.50e6; DRSC19731 3.66e6; DRSC19964 3.60e6; DRSC19967 2.67e6; DRSC21788 3.48e6
CG31650: DRSC03140 3.45e6
Cyp6t1 (Cytochrome P450 6t1): DRSC20564 3.74e6
St4 (Sulfotransferase 4): DRSC07008 3.56e6
Mlc2 (Myosin light chain 2): DRSC16741 3.71e6
mbm (mushroom body miniature): DRSC00319 3.54e6
CG6424: DRSC05936 3.54e6
CG33267: DRSC09120 3.54e6
CG8483: DRSC16430 3.50e6
Nse1 (Non-SMC element 1): DRSC02147 3.38e6
lectin-30A: DRSC02560 3.67e6
CG11980: DRSC14456 3.60e6
CG9967: DRSC00742 3.38e6
CG32806: DRSC21699 3.31e6
Orc1 (Origin recognition complex subunit 1): DRSC07496 1.54e6
CG5783: DRSC02894 3.50e6
Kr (Kruppel): DRSC04622 3.29e6
CG12723: DRSC19499 3.64e6
Cpr65Ea (Cuticular protein 65Ea): DRSC11027 3.51e6
Ids (Iduronate 2-sulfatase): DRSC08222 3.58e6
CG7272: DRSC10795 3.52e6
CG10265: DRSC05986 3.19e6; DRSC21680 3.61e6
His2Av (Histone H2A variant): DRSC16702 3.43e6
ics (icarus): DRSC01878 3.55e6
CG1698: DRSC06640 3.59e6
CG31898: DRSC01019 3.59e6
mRpL49 (mitochondrial ribosomal protein L49): DRSC19908 3.60e6
Ufd4 (Ubiquitin fusion-degradation 4-like): DRSC02871 3.59e6
RpL18 (Ribosomal protein L18): DRSC11016 3.52e6; DRSC22323 2.62e6
RagC-D (Ras-related GTP binding C/D): DRSC07239 3.45e6
CG6565: DRSC02970 3.67e6
nAChRbeta2 (nicotinic Acetylcholine Receptor beta2): DRSC17010 3.49e6
uzip (unzipped): DRSC04722 3.55e6
Bap60 (Brahma associated protein 60kD): DRSC19337 3.29e6
btv (beethoven): DRSC01615 3.41e6; DRSC02449 3.54e6

Reformatted: entries from further up.
Target gene | amplicon | mean viability with MMS
St4 (Sulfotransferase 4) | DRSC07008 | 3.56e6
Mlc2 (Myosin light chain 2) | DRSC16741 | 3.71e6
mbm (mushroom body miniature) | DRSC00319 | 3.54e6
CG6424 | DRSC05936 | 3.54e6
CG33267 | DRSC09120 | 3.54e6
CG8483 | DRSC16430 | 3.50e6
